According to patent publication US20250099420A1, “SMALL MOLECULE MODULATORS OF GPR139 COMPLEX” (University of Florida Research Foundation, Incorporated, priority 2022, published 2025):

Test system: parental HEK cells
Assay: HEK parental Antagonist Counterscreen Assay (non-transfected cells, acetylcholine control)
Assay type: cell-based

SMILES	HEK antagonist activity Hill Slope
O=C(Nc1ccccc1C(=O)O)c1ccc(Oc2ccc([N+](=O)[O-])cc2)cc1 [SR-01000201144]	8.01
Cc1cccc(NC(=O)CCC(=O)OCc2ccc(Br)cc2)c1 [SR-01000258561]	14.89
O=c1c(-c2ccc(Cl)cc2)c(C(F)(F)F)oc2cc(O)ccc12 [SR-01000438114]	13.82
COc1cccc(OC)c1C(=O)Oc1ccc2c(=O)c(-c3ccc(Cl)cc3)c(C(F)(F)F)oc2c1 [SR-01000471218]	10.22
Cc1c(-c2cccc(NC(=O)C3c4ccccc4Oc4ccccc43)c2)nc2ncccn12 [SR-01000907648]	8.81
